# Among all 320,000 compounds or so, about 22,000 (6.9%) were called active. The shares of active, inactive and inconclusive entries below differ from those in the screen. Calls follow the shape of the dose curve; as a rule, active = well fitted inhibition curve with a large enough effect; inconclusive = small, poorly fitted or top-dose-only effect, or another doubt; inactive = no such curve, though single readings can be large or run the other way. Potencies of inconclusive entries are doubtful fits and often do not repeat.
# Test: Primary qHTS for delayed death inhibitors of the malarial parasite plastid, 96 hour incubation
# Conditions: P. falciparum luciferase reporter growth; series mostly up to 28.7 µM; activity change, negative = inhibition: at the top concentration
# Outline: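 P. falciparum expressing integrated firefly luciferase, in erythrocytes at 2% hematocrit, 0.05% parasitemia, incubated with compounds 96 h at 37 C, 5% CO2. Growth inhibition read as loss of luminescence; two-generation exposure targets delayed-death apicoplast inhibitors.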
# % is scaled to controls: 0 for no effect and ±100 for the full control effect; potency is read from the fitted curve at half-maximal effect.
Compound,"activity change, negative = inhibition",Potency
CCC1CCc2sc(C(=O)N(C)CC(=O)Nc3ccc(OC)cc3)cc2C1 (stereo not drawn),inactive: -10.8%,
COC(=O)CC1C(=O)NCCN1C(=O)c1cc(OC)c(OC)cc1OC (stereo not drawn),inactive: -5.17%,
CCC1(CC)N([O-])C(C)=C(c2ccccc2)[N+]1=O,inactive: 42.5%,
COc1cccc(N2C(N)=NC(N)=NC2(C)C)c1,inactive: -18.7%,
O=C(Nc1cnn(Cc2ccc(F)cc2)c1)c1cc(-c2cccs2)on1,,"inconclusive: 11.7 µM [inhibitor, partial curve, poor fit]"
CC1CN(C(=O)c2cnn3c(C(F)F)cc(-c4ccccc4)nc23)CC(C)O1 (stereo not drawn),,"inconclusive: 2.08 µM [inhibitor, full curve]"
Cc1nnc2sc(SCC(=O)Nc3cccc(Cl)c3)nn2c1=O,,"inconclusive: 0.294 µM [inhibitor, full curve, poor fit]"
Cc1ccc(C2(c3ccc(C)cc3)CC2C(=O)NC(C)C)cc1 (stereo not drawn),,"inconclusive: 9.28 µM [inhibitor, partial curve, poor fit]"
COc1ccc(N(C)C(=O)c2cc3c(s2)-c2c(C)cccc2OC3)c(OC)c1,,"inconclusive: 7.38 µM [inhibitor, partial curve]"
Clc1ccccc1-c1nc2nc3ccccc3nc2n1-c1ccc2c(c1)OCO2,,active: 10.4 µM
Cc1ccc(NS(=O)(=O)c2ccc(C(=O)NNC(=O)c3ccccc3O)cc2)cc1,,"inconclusive: 18.5 µM [inhibitor, single point]"
CCCN(C(=O)C1CCCN(c2ncnc3c2nc2n3CCCCC2)C1)c1ccc(F)cc1 (stereo not drawn),,"inconclusive: 18.5 µM [inhibitor, single point]"
Cc1ccc(C2NC(=O)NC(O)(C(F)(F)F)C2C(=O)c2ccccc2)o1 (stereo not drawn),,"inconclusive: 18.5 µM [inhibitor, single point]"
CCn1c(SCC(=O)c2ccc(Cl)s2)nnc1-c1cccs1,,"inconclusive: 11.7 µM [inhibitor, single point]"
CC(=O)NC(=S)Nc1sc2c(c1C#N)CCCCC2,inactive: 124%,
Cn1c(COc2ccc(F)cc2)nnc1SCC(=O)NC1CC1,,"inconclusive: 14.7 µM [inhibitor, partial curve, poor fit]"
Cc1[nH]ncc1-c1nc2ccccc2[nH]1,inactive: -18.3%,
COc1ccc(CNC(=O)CCc2ccc(S(=O)(=O)N3CCCCCC3)cc2)cc1OC,,"inconclusive: 5.22 µM [inhibitor, partial curve]"
Cc1c(NC(=S)NC(=O)Cc2ccccc2)cccc1C(=O)O,inactive: 44%,
O=C(O)CCc1ccc(-c2ccc(Cl)cc2)o1,,"inconclusive: 16.5 µM [inhibitor, single point]"
C=CCn1c(=NC(=O)c2cccs2)sc2cccc(OC)c21,,"inconclusive: 8.28 µM [inhibitor, partial curve, poor fit]"
CCOC(=O)Cn1nc(C)c(NC(=O)COc2ccc([N+](=O)[O-])c(C)c2)c1C,,"inconclusive: 0.928 µM [inhibitor, partial curve, poor fit]"
CN=C1S/C(=C\c2ccc(Sc3ccc(Cl)cc3)o2)C(=O)N1C,inactive: 43.3%,
CCn1cc(S(=O)(=O)c2ccc(C)cc2)c(=O)c2cc(OC)ccc21,inactive: 25.1%,

Compound,"activity change, negative = inhibition",Potency
CC(C)CC(C(=O)Nn1cnnc1)N1C(=O)c2ccccc2C1=O (stereo not drawn),,"inconclusive: 18.5 µM [inhibitor, single point]"
Cc1cccn2c(=O)cc(CSc3nnc(NC(=O)COc4ccccc4)s3)nc12,,"inconclusive: 13.1 µM [inhibitor, partial curve, poor fit]"
Cc1ccc(N2CN(Cc3ccco3)CNC2=S)c(C)c1,,"inconclusive: 9.28 µM [inhibitor, single point]"
COc1cccc(C(C#N)N2CCCCC2)c1O (stereo not drawn),,"inconclusive: 18.5 µM [inhibitor, single point]"
CCN(CC)S(=O)(=O)c1cccc(-c2nnc(SCCCC(=O)c3ccc(F)cc3)o2)c1,inactive: 0%,
N#CC1(NC(=O)COC(=O)c2ccccc2SCC(=O)N2CCCC2)CCCCC1,,"inconclusive: 13.1 µM [inhibitor, single point]"
O=C(Nc1cccnc1)c1cc(-c2ccc(Cl)cc2)on1,inactive: 91.1%,
Cc1ccc(C2(C)NC(=O)N(CC(=O)NC(=O)NC3CCCC3)C2=O)cc1 (stereo not drawn),,"inconclusive: 18.5 µM [inhibitor, single point]"
Cc1ccc2nc(C)c(C(=O)N/N=C/c3ccccc3[N+](=O)[O-])cc2c1,inactive: 26.9%,
COC(=O)c1ccc(NC(=O)CCN2C(=O)NC(C)(C)C2=O)cc1,inactive: 48.9%,
CCCS(=O)(=O)c1cscc1NC(=O)c1c(-c2c(F)cccc2Cl)noc1C,,"inconclusive: 10.4 µM [inhibitor, single point]"
O=C(COC(=O)c1c(Cl)cccc1Cl)Nc1ccccc1Br,,"inconclusive: 3.29 µM [inhibitor, partial curve]"
COc1ccc(-c2cc3ncccc3cn2)cc1,inactive: 235%,
O=c1[nH]c(=O)n(CCC2=CCCCC2)c(O)c1C=Nc1cccc(F)c1,inactive: 54.2%,
Cc1nc(NC(C)c2ccccc2)c2oc3ccccc3c2n1 (stereo not drawn),,"inconclusive: 2.08 µM [inhibitor, full curve, poor fit]"
C=C1CC2C3C=C(C)C4=CC(=O)CCC4(C)C3CCC2(C)[C@@]1(OC(C)=O)C(C)=O (stereo partly drawn),,active: 10.7 µM
CCOC(=O)c1ccc(COC(=O)c2ccc3c(c2)-c2ccccc2C3=O)cc1,inactive: 79%,
COc1ccc(N(C)C(=O)c2ccc3snnc3c2)cc1,,active: 10.4 µM
COC(=O)C1CCN(C(=O)CSc2nnc(-c3ccncc3)o2)CC1,,active: 5.22 µM
COc1ccc(C(=O)NC(=S)Nc2ccccc2N2CCCCC2)cc1[N+](=O)[O-],,"inconclusive: 18.5 µM [inhibitor, single point]"
CCOc1cc(S(=O)(=O)N2CCN=C2Cc2ccccc2)ccc1F,,"inconclusive: 7.38 µM [inhibitor, single point]"
COc1ccc(C(C)=O)cc1COC(=O)c1cc2ccccc2cc1O,inactive: -20.5%,
CCn1cc(/C=N\NC(=O)Cc2ccc([N+](=O)[O-])cc2)c(C)n1,inactive: -0.34%,
O=C(NCC1CCCN1S(=O)(=O)c1cccs1)c1cccc([N+](=O)[O-])c1 (stereo not drawn),inactive: 1.21%,

# An excerpt from above in order of heavy-atom count, high to low:
Compound,"activity change, negative = inhibition",Potency
CCOC(=O)c1ccc(COC(=O)c2ccc3c(c2)-c2ccccc2C3=O)cc1,inactive: 79%,
CCn1cc(/C=N\NC(=O)Cc2ccc([N+](=O)[O-])cc2)c(C)n1,inactive: -0.34%,
COc1ccc(N(C)C(=O)c2ccc3snnc3c2)cc1,,active: 10.4 µM
